Laboratory results taken from US20040265863.

Chains of the proteins cited; added tags and fusions are not shown. Lines headed by an entry give the natural chain unless they say otherwise; changes in a name come on top.
UniProt P00573: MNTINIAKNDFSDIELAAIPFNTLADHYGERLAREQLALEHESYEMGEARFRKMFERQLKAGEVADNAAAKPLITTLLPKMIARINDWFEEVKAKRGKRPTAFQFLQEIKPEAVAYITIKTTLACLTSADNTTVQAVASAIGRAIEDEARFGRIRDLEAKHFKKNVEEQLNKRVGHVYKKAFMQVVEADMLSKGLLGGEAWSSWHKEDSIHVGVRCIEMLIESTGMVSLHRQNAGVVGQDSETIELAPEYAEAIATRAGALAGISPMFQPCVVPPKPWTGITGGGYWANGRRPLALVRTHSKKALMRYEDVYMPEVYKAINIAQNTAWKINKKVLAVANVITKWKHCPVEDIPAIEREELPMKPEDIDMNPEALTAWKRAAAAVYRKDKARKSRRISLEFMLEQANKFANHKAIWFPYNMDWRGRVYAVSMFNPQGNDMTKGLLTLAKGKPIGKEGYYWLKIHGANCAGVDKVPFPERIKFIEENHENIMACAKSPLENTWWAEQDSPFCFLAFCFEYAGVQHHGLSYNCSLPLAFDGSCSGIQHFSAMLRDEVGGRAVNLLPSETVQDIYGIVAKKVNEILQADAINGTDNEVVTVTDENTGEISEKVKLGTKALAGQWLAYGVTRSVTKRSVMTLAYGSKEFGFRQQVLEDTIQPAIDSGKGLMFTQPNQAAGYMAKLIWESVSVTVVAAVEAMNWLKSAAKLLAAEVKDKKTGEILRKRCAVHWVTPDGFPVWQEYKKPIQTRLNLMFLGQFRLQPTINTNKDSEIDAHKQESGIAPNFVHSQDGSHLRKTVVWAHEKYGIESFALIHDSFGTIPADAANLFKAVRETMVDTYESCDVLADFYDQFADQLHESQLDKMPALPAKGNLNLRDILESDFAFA
UniProt P07659: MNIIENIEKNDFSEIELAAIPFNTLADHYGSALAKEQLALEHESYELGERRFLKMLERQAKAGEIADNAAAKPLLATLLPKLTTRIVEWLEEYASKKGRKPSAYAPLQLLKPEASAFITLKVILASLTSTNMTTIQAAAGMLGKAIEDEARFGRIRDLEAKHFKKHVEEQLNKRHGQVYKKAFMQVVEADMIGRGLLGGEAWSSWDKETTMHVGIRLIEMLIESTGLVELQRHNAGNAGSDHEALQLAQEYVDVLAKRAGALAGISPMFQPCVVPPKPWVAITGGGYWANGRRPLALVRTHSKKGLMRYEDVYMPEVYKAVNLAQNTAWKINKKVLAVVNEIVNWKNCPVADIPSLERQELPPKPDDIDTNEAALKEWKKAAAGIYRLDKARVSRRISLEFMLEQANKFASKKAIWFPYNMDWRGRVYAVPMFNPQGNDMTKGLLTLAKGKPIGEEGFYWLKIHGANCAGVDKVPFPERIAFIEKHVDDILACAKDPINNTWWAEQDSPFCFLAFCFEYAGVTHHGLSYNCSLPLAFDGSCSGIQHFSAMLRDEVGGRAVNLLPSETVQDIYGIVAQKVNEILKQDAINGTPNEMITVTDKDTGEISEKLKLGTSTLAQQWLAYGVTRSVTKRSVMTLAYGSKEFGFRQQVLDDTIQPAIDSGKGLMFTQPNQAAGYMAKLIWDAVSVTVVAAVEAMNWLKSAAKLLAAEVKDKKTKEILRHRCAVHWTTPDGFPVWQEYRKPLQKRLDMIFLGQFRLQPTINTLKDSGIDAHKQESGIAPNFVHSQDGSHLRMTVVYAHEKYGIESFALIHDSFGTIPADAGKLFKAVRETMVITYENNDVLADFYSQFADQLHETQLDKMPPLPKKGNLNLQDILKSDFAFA

Legend:
Experiment in all cases: activity assay
[1] = target: T7 RNA polymerase (Bacteriophage T7) (UniProt P00573); settings: in vitro transcription from amplified T7-GFP-T3 product, 37 C 60 min; purified recombinant protein; protein details: Promega RiboProbe kit
[2] = target: T3 RNA polymerase (Bacteriophage T3) (UniProt P07659); settings: in vitro transcription from amplified T7-GFP-T3 product, 37 C 60 min; purified recombinant protein; protein details: Promega RiboProbe kit
[3] = system: BP Clonase (lambda integrase recombination protein mix); settings: attB1-CAT-attB2 x pDONR222; 188 colonies (chemical) vs 0 vector only; purified recombinant protein; protein details: Invitrogen BP Clonase enzyme mix

GAAGGAGTAATACGACTCACTATAGGGAGCCACCATGGGCCCTTCGGAAC (double strand) [T7 linker (T7top/T7bottom)]
functional effect [1]: active

GGCCTAAAGGGTCCCTTTAGTGAGGGTTAATTGCGCGC (double strand) [T3 linker (T3top/T3bottom)]
functional effect [2]: active

GGGGACAAGTTTGTACAAAAAAGCAGGCTTCCCTTCGGAAC (double strand) [attB1 adaptor]
activity on this sequence [3]: active
